Results deposited as PubChem BioAssay AID1508588 (Peter MacCallum Cancer Centre, 2020)
In all, the deposit lists about 18,000 reagents; this is a random part of them. In the full data, 790 (4.4%) are marked active. 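Calls rest on a combination of fold-change classes in drug and vehicle arms, not all shown here.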 Unmarked entries are inactive.

- Screen: 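Genome-wide search for knock-downs that heighten vemurafenib action in melanoma cells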 (primary screen)
- Cell system: human WM266.4 melanoma cells (BRAF V600 mutant)
- Reagents: siRNA pool against human genes, 40 nM
- Timing: 96 h from transfection to read-out
- Conditions: vemurafenib 300 nM (about IC25), added 48 h after transfection, for 48 h; comparison arm got DMSO vehicle only
- Measurement: 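Cell gain (DAPI nuclei at end minus before drug, mean of two replicates) and medium lactate by absorbance per cell, both as ratio to non-targeting siRNA, also grouped into fold-change classes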
- Reading the numbers: cell gain with vemurafenib: higher = more cell gain than with non-targeting siRNA; lactate per cell with vemurafenib: higher = more lactate made per cell
- Rule for the call: 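Enhancement is called by pairing each knock-down's vehicle-arm and drug-arm fold-change classes for viability or glycolysis; which class combinations qualify is not given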
- Calls: active = enhances vemurafenib effect; inactive = no enhancement seen

Target gene	cell gain with vemurafenib	lactate per cell with vemurafenib
TRUB2 (TruB pseudouridine synthase family member 2)	0.73	0.31
SET (SET nuclear proto-oncogene)	0.07	1.94
NBPF15 (NBPF member 15)	0.33	1.54
PRSS23 (serine protease 23)	0.79	0.83
OR4F3 (olfactory receptor family 4 subfamily F member 3)	0.77	0.43
PRPS2 (phosphoribosyl pyrophosphate synthetase 2)	0.72	0.89
MRM1 (mitochondrial rRNA methyltransferase 1)	0.54	2.05
RHEBL1 (RHEB like 1)	0.51	1.43
EID1 (EP300 interacting inhibitor of differentiation 1)	0.5	0.6
PIAS3 (protein inhibitor of activated STAT 3)	0.98	0.73
RGR (retinal G protein coupled receptor)	-0.07	3.37
ADGRE4P (adhesion G protein-coupled receptor E4, pseudogene)	0.77	1.15
OR10H1 (olfactory receptor family 10 subfamily H member 1)	0.5	1.18
CCL19 (C-C motif chemokine ligand 19)	0.15	2.63
COLQ	0.56	0.68
SPDEF (SAM pointed domain containing ETS transcription factor)	0.92 (active)	0.46
PON2 (paraoxonase 2)	0.65	0.82
KLC1 (kinesin light chain 1)	0.51	1.62
IFNL3 (interferon lambda 3)	0.66	0.28
NR3C1 (nuclear receptor subfamily 3 group C member 1)	1.01	0.72
LCE5A (late cornified envelope 5A)	0.18	0.77
VAMP2 (vesicle associated membrane protein 2)	0.66	1.44
IFIH1 (interferon induced with helicase C domain 1)	0.19	0.91
PIF1 (PIF1 5'-to-3' DNA helicase)	0.01	2.23
EMC1 (ER membrane protein complex subunit 1)	0.8	1.02
TUSC1 (tumor suppressor candidate 1)	1.24	1.07
PSMC4 (proteasome 26S subunit, ATPase 4)	-0.1	6.59
BEX5 (brain expressed X-linked 5)	0.69	0.87

Continued (11 carried over from the part before).
Target gene	cell gain with vemurafenib	lactate per cell with vemurafenib
KLC1 (kinesin light chain 1)	0.51	1.62
IFNL3 (interferon lambda 3)	0.66	0.28
NR3C1 (nuclear receptor subfamily 3 group C member 1)	1.01	0.72
LCE5A (late cornified envelope 5A)	0.18	0.77
VAMP2 (vesicle associated membrane protein 2)	0.66	1.44
IFIH1 (interferon induced with helicase C domain 1)	0.19	0.91
PIF1 (PIF1 5'-to-3' DNA helicase)	0.01	2.23
EMC1 (ER membrane protein complex subunit 1)	0.8	1.02
TUSC1 (tumor suppressor candidate 1)	1.24	1.07
PSMC4 (proteasome 26S subunit, ATPase 4)	-0.1	6.59
BEX5 (brain expressed X-linked 5)	0.69	0.87
RNF152 (ring finger protein 152)	1	0.72
CSRNP2 (cysteine and serine rich nuclear protein 2)	0.79	0.98
IFIT1 (interferon induced protein with tetratricopeptide repeats 1)	0.85 (active)	0.48
DIS3L (DIS3 like exosome 3'-5' exoribonuclease)	0.53	0.9
ZP3 (zona pellucida glycoprotein 3)	0.9	1.36
MYO3B (myosin IIIB)	0.35	0.62
ST6GAL1 (ST6 beta-galactoside alpha-2,6-sialyltransferase 1)	0.63	0.3
H4C4 (H4 clustered histone 4)	0.36	2.13
PCDHA5 (protocadherin alpha 5)	0.95	0.99
GLUD2 (glutamate dehydrogenase 2)	0.82	0.62
LMTK1 (lemur tail kinase 1)	0.31	0.88
LINC02694 (long independently transcribed non-coding RNA 2694)	0.94	1.32
AMMECR1 (AMMECR nuclear protein 1)	0.66	0.91
VAX2 (ventral anterior homeobox 2)	0.99	0.27
DUS3L (dihydrouridine synthase 3 like)	0.06	1.72
OR5W2 (olfactory receptor family 5 subfamily W member 2)	0.47	1.42
USF2 (upstream transcription factor 2, c-fos interacting)	1.03	0.45
NHLRC3 (NHL repeat containing 3)	0.88	0.31
GCHFR (GTP cyclohydrolase I feedback regulator)	0.36	1.53
FMO4 (flavin containing dimethylaniline monoxygenase 4)	0.47	0.63
HENMT1 (HEN methyltransferase 1)	0.44	0.96
ZDHHC3 (zDHHC palmitoyltransferase 3)	0.73	0.52
MAGEA3 (MAGE family member A3)	1.16	0.76
CDKL2 (cyclin dependent kinase like 2)	0.12	0.66
DNMBP (dynamin binding protein)	0.74	0.42
USP34 (ubiquitin specific peptidase 34)	1.07	0.76
OR5B3 (olfactory receptor family 5 subfamily B member 3)	0.24	0.56
ZCCHC12 (zinc finger CCHC-type containing 12)	0.25	0.56
HIGD2A (HIG1 hypoxia inducible domain family member 2A)	0.64	0.83
HTRA2 (HtrA serine peptidase 2)	0.51	1.6
CD34 (CD34 molecule)	0.36	0.94
BIRC2 (baculoviral IAP repeat containing 2)	0.43	1.7
ZNF793 (zinc finger protein 793)	0.81	1.44
FDXR (ferredoxin reductase)	0.57	0.62
KATNB1 (katanin regulatory subunit B1)	0.55 (active)	0.4
ASMTL (acetylserotonin O-methyltransferase like)	0.47	0.93
MRPS10 (mitochondrial ribosomal protein S10)	0.49	1.1
VCPKMT (valosin containing protein lysine methyltransferase)	0.85	0.8
HNRNPH1 (heterogeneous nuclear ribonucleoprotein H1)	0.63	0.64
TLE3 (TLE family member 3, transcriptional corepressor)	0.45	1.53
PRTG (protogenin)	0.7	0.32
LARS1 (leucyl-tRNA synthetase 1)	0.53	0.91
REEP1 (receptor accessory protein 1)	0.56	0.36
HS2ST1 (heparan sulfate 2-O-sulfotransferase 1)	0.62	0.24
GBA3 (glucosylceramidase beta 3 (gene/pseudogene))	0.55	0.32
CTSA (cathepsin A)	1.05	1.06
RPL37A (ribosomal protein L37a)	-0.02	2.3
HSPB7 (heat shock protein family B (small) member 7)	0.91	1.08
ETFBKMT	0.06	1.2
GLOD4 (glyoxalase domain containing 4)	0.89	0.87
RHO (rhodopsin)	0.46 (active)	0.41
OR8G2P (olfactory receptor family 8 subfamily G member 2 pseudogene)	0.93	0.96
LYSMD3 (LysM domain containing 3)	0.26	2.19
STAC2 (SH3 and cysteine rich domain 2)	0.67	0.38
SERF1A (small EDRK-rich factor 1A)	0.47	1.42
SSTR1 (somatostatin receptor 1)	0.24	1.02
